Some of the results follow. Residues, ends and D or L forms follow the SMILES beside them. *: point of attachment. Cbz = O=C(OCc1ccccc1)*
Columns and labels:
Experiment in all cases: log2 fold change, soluble protein after heating vs DMSO (PISA); higher = thermal stabilisation; K562 cells, 10 uM, 30 min; active = over 0.2 and 3.5 SD of the protein, either way, in both replicates (recomputed)
IRAK-1-4 Inhibitor I = compound: C1COCCN1CCN2C3=CC=CC=C3N=C2NC(=O)C4=CC(=CC=C4)[N+](=O)[O-] [IRAK-1-4 Inhibitor I]
Summary of the method: (§1)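 Thermal stability values are relative to control samples and come from duplicates. They are expressed as log2 fold changes. For measurement, K562 cells (2×10^6 cells/mL) received 10 μM compound for 30 min, and aliquots were heated for 3 min over 48°C-58°C, pooled, and extracted at 4°C in PBS with 0.5% NP-40. Soluble protein, the supernatant after 21,000xg for 90 min, was quantified by TMTpro 16plex LC-MS/MS with equalised channel sums.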

Sequences of proteins named here, by UniProt entry; tags and fusion partners are left off. A change or cut given only in a name is not applied to a line headed by its entry.
UniProt Q13310, whole entry, looked up: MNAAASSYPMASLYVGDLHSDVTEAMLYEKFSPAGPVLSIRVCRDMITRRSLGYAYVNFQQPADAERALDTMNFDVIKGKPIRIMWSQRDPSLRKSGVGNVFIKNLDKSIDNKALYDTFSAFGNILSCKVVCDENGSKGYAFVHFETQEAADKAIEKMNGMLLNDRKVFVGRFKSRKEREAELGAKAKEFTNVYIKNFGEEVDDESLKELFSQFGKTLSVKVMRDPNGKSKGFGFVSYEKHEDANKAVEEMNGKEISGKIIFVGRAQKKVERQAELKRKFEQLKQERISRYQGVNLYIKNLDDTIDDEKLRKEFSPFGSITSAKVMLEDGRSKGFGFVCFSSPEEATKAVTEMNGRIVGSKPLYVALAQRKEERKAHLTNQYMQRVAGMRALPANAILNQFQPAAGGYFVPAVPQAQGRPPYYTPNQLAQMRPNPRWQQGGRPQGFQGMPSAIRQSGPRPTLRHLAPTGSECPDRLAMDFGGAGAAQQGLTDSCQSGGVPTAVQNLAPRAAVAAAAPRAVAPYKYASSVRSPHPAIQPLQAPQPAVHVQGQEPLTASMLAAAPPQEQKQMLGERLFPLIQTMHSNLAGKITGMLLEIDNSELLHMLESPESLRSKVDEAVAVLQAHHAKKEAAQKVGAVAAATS
UniProt Q8WUM4: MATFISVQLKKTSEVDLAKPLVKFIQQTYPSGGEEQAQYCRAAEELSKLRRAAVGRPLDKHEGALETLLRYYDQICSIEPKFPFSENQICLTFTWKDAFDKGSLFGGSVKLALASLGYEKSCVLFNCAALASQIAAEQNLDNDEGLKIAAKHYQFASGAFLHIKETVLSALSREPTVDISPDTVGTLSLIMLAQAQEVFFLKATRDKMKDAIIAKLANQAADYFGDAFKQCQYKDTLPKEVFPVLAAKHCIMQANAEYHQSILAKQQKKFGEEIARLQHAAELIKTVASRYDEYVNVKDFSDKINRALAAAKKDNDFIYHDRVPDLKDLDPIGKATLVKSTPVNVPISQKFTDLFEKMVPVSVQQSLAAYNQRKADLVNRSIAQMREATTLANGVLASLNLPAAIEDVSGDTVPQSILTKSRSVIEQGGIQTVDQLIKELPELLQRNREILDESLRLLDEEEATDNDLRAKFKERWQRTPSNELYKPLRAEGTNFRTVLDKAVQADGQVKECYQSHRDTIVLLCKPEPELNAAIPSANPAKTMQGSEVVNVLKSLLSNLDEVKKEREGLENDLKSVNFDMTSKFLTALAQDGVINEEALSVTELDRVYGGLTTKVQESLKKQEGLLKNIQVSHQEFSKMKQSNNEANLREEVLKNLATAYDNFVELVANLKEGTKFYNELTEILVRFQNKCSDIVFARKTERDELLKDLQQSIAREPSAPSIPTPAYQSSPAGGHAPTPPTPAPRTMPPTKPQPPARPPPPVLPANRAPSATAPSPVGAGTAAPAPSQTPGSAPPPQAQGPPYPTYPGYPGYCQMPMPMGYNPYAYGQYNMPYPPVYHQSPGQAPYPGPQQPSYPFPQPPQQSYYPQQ
UniProt P12004, whole entry, looked up: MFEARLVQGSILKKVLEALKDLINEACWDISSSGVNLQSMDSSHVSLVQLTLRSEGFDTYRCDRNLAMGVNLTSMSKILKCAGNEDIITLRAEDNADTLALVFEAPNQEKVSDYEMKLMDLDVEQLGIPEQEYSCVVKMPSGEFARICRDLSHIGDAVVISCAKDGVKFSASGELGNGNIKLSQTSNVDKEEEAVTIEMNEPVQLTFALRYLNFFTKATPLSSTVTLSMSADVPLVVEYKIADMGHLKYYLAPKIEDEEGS
UniProt Q14690: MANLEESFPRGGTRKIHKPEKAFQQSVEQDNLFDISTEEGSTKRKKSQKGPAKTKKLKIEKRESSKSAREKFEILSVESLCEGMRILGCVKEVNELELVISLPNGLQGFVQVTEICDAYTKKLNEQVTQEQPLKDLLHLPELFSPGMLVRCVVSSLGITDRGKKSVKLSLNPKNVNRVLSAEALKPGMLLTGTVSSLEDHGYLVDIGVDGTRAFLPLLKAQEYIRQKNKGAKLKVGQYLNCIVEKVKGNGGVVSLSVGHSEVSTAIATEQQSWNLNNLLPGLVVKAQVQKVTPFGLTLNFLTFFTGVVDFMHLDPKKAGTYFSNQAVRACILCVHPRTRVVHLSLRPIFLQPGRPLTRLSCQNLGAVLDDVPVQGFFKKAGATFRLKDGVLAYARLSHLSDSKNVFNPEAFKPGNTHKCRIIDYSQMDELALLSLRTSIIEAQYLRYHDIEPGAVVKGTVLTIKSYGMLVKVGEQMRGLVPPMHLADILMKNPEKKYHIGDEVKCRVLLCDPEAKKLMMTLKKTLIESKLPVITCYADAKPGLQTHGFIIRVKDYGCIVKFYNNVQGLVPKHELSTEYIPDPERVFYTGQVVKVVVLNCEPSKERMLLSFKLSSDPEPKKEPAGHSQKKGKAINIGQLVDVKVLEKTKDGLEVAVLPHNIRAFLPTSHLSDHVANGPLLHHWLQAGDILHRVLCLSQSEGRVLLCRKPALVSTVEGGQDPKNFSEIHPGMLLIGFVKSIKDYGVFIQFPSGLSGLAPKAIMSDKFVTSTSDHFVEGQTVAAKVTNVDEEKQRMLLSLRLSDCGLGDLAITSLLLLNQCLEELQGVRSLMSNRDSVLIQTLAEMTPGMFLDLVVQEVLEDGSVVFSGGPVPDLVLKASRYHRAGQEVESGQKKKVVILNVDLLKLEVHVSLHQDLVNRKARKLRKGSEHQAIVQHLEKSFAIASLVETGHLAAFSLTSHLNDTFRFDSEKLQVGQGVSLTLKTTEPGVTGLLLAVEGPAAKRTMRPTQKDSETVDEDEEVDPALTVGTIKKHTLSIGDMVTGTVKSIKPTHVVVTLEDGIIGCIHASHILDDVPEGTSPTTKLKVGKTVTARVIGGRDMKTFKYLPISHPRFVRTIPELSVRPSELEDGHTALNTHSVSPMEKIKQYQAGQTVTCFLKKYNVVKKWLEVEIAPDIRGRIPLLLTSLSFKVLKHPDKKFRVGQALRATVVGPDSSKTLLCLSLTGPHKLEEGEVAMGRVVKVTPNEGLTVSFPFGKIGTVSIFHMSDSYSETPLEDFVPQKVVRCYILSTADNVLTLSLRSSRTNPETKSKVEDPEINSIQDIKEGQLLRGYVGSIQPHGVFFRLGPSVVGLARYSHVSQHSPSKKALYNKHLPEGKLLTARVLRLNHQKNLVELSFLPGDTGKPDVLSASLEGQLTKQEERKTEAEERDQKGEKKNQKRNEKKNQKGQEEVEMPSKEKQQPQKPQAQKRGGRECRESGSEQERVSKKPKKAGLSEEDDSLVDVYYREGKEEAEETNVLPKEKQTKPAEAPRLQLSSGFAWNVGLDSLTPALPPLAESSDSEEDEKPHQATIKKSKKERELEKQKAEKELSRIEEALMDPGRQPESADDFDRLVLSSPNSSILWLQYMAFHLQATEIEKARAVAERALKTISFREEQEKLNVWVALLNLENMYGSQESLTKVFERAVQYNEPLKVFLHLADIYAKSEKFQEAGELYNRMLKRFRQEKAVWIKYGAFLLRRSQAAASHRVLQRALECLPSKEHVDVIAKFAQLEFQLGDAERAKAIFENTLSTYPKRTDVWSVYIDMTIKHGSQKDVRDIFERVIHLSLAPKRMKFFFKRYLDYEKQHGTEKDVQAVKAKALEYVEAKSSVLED
UniProt O75381, whole entry, looked up: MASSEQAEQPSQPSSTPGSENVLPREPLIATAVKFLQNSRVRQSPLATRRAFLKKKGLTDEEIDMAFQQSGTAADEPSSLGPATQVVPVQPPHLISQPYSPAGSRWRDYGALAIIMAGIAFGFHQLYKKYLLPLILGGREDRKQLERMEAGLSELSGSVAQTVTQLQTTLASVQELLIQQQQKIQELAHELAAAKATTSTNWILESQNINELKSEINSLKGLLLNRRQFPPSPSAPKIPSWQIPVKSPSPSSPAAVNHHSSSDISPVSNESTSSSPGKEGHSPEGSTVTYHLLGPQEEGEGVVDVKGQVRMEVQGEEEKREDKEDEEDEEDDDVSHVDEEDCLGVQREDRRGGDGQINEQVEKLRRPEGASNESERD
UniProt O96013: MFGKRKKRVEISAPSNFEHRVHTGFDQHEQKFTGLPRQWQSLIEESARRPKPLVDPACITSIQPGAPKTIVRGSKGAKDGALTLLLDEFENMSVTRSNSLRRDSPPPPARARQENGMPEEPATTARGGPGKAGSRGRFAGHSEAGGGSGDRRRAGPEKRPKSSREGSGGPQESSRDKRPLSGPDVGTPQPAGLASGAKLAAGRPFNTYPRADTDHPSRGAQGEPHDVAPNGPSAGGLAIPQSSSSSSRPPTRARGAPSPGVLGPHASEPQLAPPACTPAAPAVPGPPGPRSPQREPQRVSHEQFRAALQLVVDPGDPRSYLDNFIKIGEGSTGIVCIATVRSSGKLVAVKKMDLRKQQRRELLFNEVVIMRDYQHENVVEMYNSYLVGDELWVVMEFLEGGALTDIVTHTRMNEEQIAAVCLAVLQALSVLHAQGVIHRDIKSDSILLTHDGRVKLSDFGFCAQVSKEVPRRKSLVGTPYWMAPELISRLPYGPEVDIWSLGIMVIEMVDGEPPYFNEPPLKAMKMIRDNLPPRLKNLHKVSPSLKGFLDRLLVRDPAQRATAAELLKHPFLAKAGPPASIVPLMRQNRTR
UniProt Q9BTK6, whole entry, looked up: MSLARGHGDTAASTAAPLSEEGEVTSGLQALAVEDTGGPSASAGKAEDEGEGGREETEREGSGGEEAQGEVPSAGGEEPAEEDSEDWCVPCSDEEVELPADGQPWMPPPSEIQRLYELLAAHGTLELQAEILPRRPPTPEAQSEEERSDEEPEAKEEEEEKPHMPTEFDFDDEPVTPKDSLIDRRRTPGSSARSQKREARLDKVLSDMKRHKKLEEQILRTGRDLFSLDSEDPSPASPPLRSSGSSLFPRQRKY
UniProt Q9BRX2, whole entry, looked up: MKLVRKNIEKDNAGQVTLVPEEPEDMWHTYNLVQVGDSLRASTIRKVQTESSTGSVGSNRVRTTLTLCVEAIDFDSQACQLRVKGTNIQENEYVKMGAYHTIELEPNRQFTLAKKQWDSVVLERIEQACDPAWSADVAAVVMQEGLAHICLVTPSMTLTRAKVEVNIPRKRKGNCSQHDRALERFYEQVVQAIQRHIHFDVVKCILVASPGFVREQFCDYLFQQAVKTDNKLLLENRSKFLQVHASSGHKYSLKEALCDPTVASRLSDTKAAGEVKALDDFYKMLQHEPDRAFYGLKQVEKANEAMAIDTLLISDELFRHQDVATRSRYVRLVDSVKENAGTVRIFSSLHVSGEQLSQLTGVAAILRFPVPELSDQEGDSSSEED
UniProt Q8IZL8: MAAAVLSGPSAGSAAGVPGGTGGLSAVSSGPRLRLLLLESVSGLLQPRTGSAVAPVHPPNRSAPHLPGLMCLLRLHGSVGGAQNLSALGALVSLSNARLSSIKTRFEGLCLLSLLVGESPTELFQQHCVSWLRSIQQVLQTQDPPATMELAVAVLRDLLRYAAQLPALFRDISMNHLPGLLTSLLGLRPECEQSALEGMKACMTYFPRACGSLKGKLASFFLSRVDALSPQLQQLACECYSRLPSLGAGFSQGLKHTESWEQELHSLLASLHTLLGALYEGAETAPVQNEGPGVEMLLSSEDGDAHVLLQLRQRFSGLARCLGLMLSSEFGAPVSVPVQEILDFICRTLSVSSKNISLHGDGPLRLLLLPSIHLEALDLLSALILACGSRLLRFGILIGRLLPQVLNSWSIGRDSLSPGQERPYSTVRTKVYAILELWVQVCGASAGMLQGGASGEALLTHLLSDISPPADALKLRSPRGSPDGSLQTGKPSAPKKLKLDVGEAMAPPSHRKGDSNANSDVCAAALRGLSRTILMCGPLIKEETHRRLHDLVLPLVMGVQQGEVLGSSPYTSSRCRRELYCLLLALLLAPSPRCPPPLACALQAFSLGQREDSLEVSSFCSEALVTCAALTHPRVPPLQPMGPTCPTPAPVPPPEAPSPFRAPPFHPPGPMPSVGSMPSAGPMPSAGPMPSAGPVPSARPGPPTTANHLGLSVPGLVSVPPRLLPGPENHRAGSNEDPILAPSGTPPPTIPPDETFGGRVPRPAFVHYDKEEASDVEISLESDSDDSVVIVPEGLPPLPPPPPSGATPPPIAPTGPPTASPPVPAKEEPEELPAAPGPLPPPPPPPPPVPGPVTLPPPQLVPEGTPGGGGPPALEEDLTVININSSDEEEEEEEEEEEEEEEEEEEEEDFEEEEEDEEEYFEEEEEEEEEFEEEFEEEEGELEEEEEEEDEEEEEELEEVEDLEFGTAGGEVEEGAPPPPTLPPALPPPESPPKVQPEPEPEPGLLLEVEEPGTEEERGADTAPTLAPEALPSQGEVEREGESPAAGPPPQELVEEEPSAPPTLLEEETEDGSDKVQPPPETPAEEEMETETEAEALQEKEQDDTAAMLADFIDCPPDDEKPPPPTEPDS
UniProt O75340: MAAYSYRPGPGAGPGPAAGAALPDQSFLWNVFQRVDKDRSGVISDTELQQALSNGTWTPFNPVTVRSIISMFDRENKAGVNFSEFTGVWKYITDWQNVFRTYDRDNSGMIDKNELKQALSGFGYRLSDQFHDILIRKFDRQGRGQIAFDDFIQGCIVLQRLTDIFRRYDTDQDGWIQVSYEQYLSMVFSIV

ibrutinib = compound: C=CC(=O)N1CCC[C@@H](n2nc(-c3ccc(Oc4ccccc4)cc3)c3c(N)ncnc32)C1 [ibrutinib]
Summary of the method: as §1

[1] = compound: CC(=O)c1cnc2ccc(-c3cc(Cl)c(O)c(Cl)c3)nc2c1N[C@H]1CC[C@H](CN(C)C)CC1
Summary of the method: as §1

ralimetinib = compound: CC(C)(C)Cn1c(N)nc2ccc(-c3[nH]c(C(C)(C)C)nc3-c3ccc(F)cc3)nc21 [ralimetinib]
Summary of the method: as §1

[2] = compound: CC(C)(O)CC(=O)NCCn1ccc2ncnc(Nc3ccc(Oc4cccc(C(F)(F)F)c4)c(Cl)c3)c21
Summary of the method: as §1

[3] = compound: CC(C)C1=C2N=C(C=C(N2N=C1)NCC3=CC=CC=C3)NCCCCCCN
Summary of the method: as §1

[4] = compound: CC(C)C[C@@H](C=O)NC(=O)[C@H](CC(C)C)NC(=O)[C@H](CC(C)C)NC(=O)OCc1ccccc1
Summary of the method: as §1

pinometostat = compound: CC(C)N(C[C@H]1O[C@@H](n2cnc3c(N)ncnc32)[C@H](O)[C@@H]1O)[C@H]1C[C@@H](CCc2nc3cc(C(C)(C)C)ccc3[nH]2)C1 [pinometostat]
Summary of the method: as §1

[5] = compound: CC1=C(C(CC(=O)N1)C2=CC=C(C=C2)C(F)(F)F)C(=O)NC3=C(C=C4C(=C3)C=NN4)F
Summary of the method: as §1

[6] = compound: CC1=C(C2=C(C=C1)C(=O)C3=CC=CC=C3N2CCCN)C
Summary of the method: as §1

Target | log2 fold change (IRAK-1-4 Inhibitor I) | log2 fold change (ibrutinib) | log2 fold change [1] | log2 fold change (ralimetinib) | log2 fold change [2] | log2 fold change [3] | log2 fold change [4] | log2 fold change (pinometostat) | log2 fold change [5] | log2 fold change [6]
PARK7 (UniProt Q99497) | inactive: 0.029 | inactive: -0.025 | inactive: 0.041 | inactive: 0.116 | inactive: 0.003 | inactive: 0.047 | inactive: -0.106 | inactive: -0.064 | inactive: 0.001 | inactive: 0.013
PANX1 (UniProt Q96RD7) | inactive: -0.051 | inactive: 0.002 | inactive: -0.032 | inactive: -0.08 | inactive: 0.021 | inactive: 0.126 | inactive: 0.012 | inactive: -0.005 | inactive: 0.002 | inactive: 0.01
PARP1 (UniProt P09874) | inactive: -0.068 | inactive: -0.027 | inactive: -0.052 | inactive: 0.039 | inactive: 0.108 | inactive: -0.068 | inactive: 0.018 | inactive: -0.009 |  | active: 0.578
PAK3 isoform 3 (UniProt O75914) | inactive: -0.01 | inactive: 0.023 | inactive: -0.007 | inactive: -0.007 | inactive: 0.025 | inactive: 0.027 | inactive: -0.083 | inactive: 0.004 | inactive: -0.046 | inactive: 0.011
PDSS1 (UniProt Q5T2R2) | inactive: 0.017 | inactive: -0.001 | inactive: -0.152 | inactive: -0.077 | inactive: -0.138 | inactive: -0.002 | inactive: -0.041 | inactive: -0.01 | inactive: -0.03 | inactive: 0.008
PABPC4 isoform 3 (UniProt Q13310) | inactive: -0.089 | inactive: 0.055 | inactive: -0.017 | inactive: 0.035 | inactive: 0.044 | inactive: -0.028 | inactive: 0.02 | inactive: 0.058 | inactive: 0.018 | inactive: -0.179
PDCD6IP (UniProt Q8WUM4) | inactive: -0.156 | inactive: -0.11 | inactive: -0.039 | inactive: 0.046 | inactive: -0.198 | inactive: -0.327 | inactive: 0.019 | inactive: 0.084 |  | inactive: 0.044
PCNA (UniProt P12004) | inactive: 0.028 | inactive: 0.001 | inactive: -0.018 | inactive: -0.048 | inactive: 0.022 | inactive: 0.039 | inactive: -0.038 | inactive: -0.055 | inactive: 0.014 | inactive: 0.035
PDCD11 (UniProt Q14690) | inactive: 0.102 | inactive: -0.074 | inactive: -0.118 | inactive: -0.083 | inactive: -0.062 | inactive: -0.228 | inactive: 0.101 | inactive: -0.039 | inactive: 0.07 | inactive: 0.066
PAICS (UniProt P22234) | inactive: 0.043 | inactive: 0.002 | inactive: 0.019 | inactive: -0.001 | inactive: -0.008 | inactive: 0.073 | inactive: 0.005 | inactive: -0.034 | inactive: 0.037 | inactive: 0.009
PAK1IP1 (UniProt Q9NWT1) | inactive: -0.141 | inactive: -0.001 | inactive: 0.18 | inactive: 0.182 | inactive: 0.118 | inactive: 0.104 | inactive: 0.037 | inactive: 0.445 | inactive: 0.062 | inactive: -0.296
PARVB (UniProt Q9HBI1) | inactive: 0.026 | inactive: -0.009 | inactive: -0.025 | inactive: 0.142 | inactive: -0.081 | inactive: -0.042 | inactive: 0.013 | inactive: 0.06 | inactive: 0.02 | inactive: 0.031
PEX14 (UniProt O75381) | inactive: -0.043 | inactive: -0.027 | inactive: 0.018 | inactive: -0.015 | inactive: -0.01 | inactive: 0.044 | inactive: -0.044 | inactive: -0.045 | inactive: -0.022 | inactive: 0.011
PASK (UniProt Q96RG2) | inactive: -0.001 | inactive: -0.033 | inactive: 0 | inactive: -0.005 | inactive: -0.097 | inactive: -0.083 | inactive: 0.006 | inactive: 0.008 | inactive: 0.049 | inactive: -0.034
PER3 isoform 2 (UniProt P56645) | inactive: -0.017 | inactive: 0.094 | inactive: -0.028 | inactive: -0.017 | inactive: 0.035 | inactive: 0.06 | inactive: -0.018 | inactive: -0.006 | inactive: 0.016 | inactive: -0.052
PAK4 (UniProt O96013) | inactive: 0.038 | inactive: -0.032 | inactive: 0.173 | inactive: -0.084 | inactive: 0 | inactive: 0.015 | inactive: 0.07 | inactive: 0.016 |  | inactive: 0.049
PDXP (UniProt Q96GD0) | inactive: 0.049 | inactive: -0.011 | inactive: 0.009 | inactive: -0.059 | inactive: -0.044 | inactive: 0.046 | inactive: 0.021 | inactive: -0.009 | inactive: 0.014 | inactive: 0.037
PDXDC1 (UniProt Q6P996) | inactive: -0.165 | inactive: -0.053 | inactive: -0.083 | inactive: 0.119 | inactive: 0.024 | inactive: -0.028 | inactive: 0.279 | inactive: 0.356 | inactive: 0.142 | inactive: 0.041
PAGR1 (UniProt Q9BTK6) | inactive: -0.057 | inactive: -0.067 | inactive: 0.042 | inactive: -0.21 | inactive: -0.061 | inactive: 0.013 | inactive: 0.272 | inactive: -0.04 | inactive: 0.014 | inactive: 0.021
PEF1 (UniProt Q9UBV8) | inactive: 0.003 | inactive: -0.002 | inactive: -0.03 | inactive: -0.057 | inactive: -0.092 | inactive: -0.094 | inactive: -0.085 | inactive: -0.041 |  | inactive: 0.085
PDE4DIP isoform 4 (UniProt Q5VU43) | inactive: -0.006 | inactive: 0.001 | inactive: 0.045 | inactive: 0.011 | inactive: -0.08 | inactive: 0.035 | inactive: 0.087 | inactive: -0.05 |  | inactive: 0.088
PDE12 (UniProt Q6L8Q7) | inactive: 0.118 | inactive: 0.015 | inactive: 0.085 | inactive: -0.036 | inactive: -0.006 | inactive: -0.032 | inactive: 0.03 | inactive: -0.031 |  | inactive: 0.033
PELO (UniProt Q9BRX2) | inactive: -0.073 | inactive: 0.071 | inactive: -0.106 | inactive: 0.122 | inactive: -0.128 | active: -0.361 | inactive: 0.058 | inactive: 0.201 |  | inactive: 0.088
PELP1 (UniProt Q8IZL8) | inactive: 0.017 | inactive: -0.017 | inactive: -0.106 | inactive: 0.04 | inactive: -0.031 | inactive: 0.017 | inactive: -0.019 | inactive: 0.008 |  | active: -2.07
PCTP (UniProt Q9UKL6) | inactive: -0.009 | inactive: -0.018 | inactive: 0.054 | inactive: -0.081 | inactive: -0.091 | active: -0.266 | inactive: -0.012 | inactive: -0.013 |  | inactive: 0.005
PBK (UniProt Q96KB5) | inactive: -0.142 | inactive: -0.059 | inactive: 0 | inactive: 0.111 | inactive: -0.144 | inactive: -0.286 | inactive: 0.06 | inactive: 0.071 |  | inactive: -0.08
PEX11B (UniProt O96011) | inactive: 0.025 | inactive: 0.04 | inactive: 0.032 | inactive: 0.005 | inactive: 0.008 | inactive: 0.075 | inactive: -0.058 | inactive: -0.031 |  | inactive: 0.012
PDCD6 (UniProt O75340) | inactive: 0.021 | inactive: -0.05 | inactive: -0.029 | inactive: -0.048 | inactive: -0.097 | inactive: -0.156 | inactive: 0.018 | inactive: 0.005 |  | inactive: -0.034

From the supplement of paper PMC10849652
